At least one structure is not confirmed: it was looked up by name or label, or the drawing left a doubt.
Assay: In vitro drug release from TPU matrix delivery system prototypes
Assay type: physicochemical
Details: low saturation and high saturation devices; threshold 0.497 micrograms per mL
Experimental: Films were cut into disks with a 1-inch diameter die punch; disks were stacked and placed between two pieces of aluminum foil and compressed under a metal weight on a 120° C. dry bath. Thickness was monitored frequently until it measured 3.5 mm with digital calipers calibrated to 0.01 mm. Devices were cut from thick films using a custom rectangular 3.5 mm×13.3 mm die punch.
All release tests were performed in sink conditions in PBS supplemented with 2% w/v Cremophor® A25/Emulgin® B25. For the first 7-days of drug release testing, 1 mL samples were taken daily; following 7 days, samples were taken every 3-4 days. At all timepoints, bottles were drained and replaced with fresh media following sampling.
A qualification for selecting an optimal TPU for DPV delivery in this application is the time to achieve 50% cumulative release of drug. This is based on the standard use time of hormonal IUDs, which in practice are removed once about half of the initial load of drug is depleted from the device. Here, this standard was used as a benchmark to evaluate the sustained release properties of candidate delivery system designs. […] The fit of first-order release kinetics to the data was assessed. Equations 1 and 2 describe drug release from a system where dissolution is dependent on a concentration gradient. […]
Based on the best-fit square-root of time relation, T50% was calculated for each TPU. […]

Structure (SMILES): C[C@H]1c2cccc(O)c2C(=O)C2=C(O)[C@]3(O)C(=O)C(C(N)=O)=C(O)[C@@H](N(C)C)[C@@H]3[C@@H](O)[C@@H]21 [doxycycline]
- released concentration versus IC50 threshold: successfully met
